These are yes or no findings as the source states them, for the method shown. Binding seen in cells or lysates may run through a third protein. Some results given as binding are weak or reduced against the parent protein; the word gives no strength.
Target: DNA (cytosine-5)-methyltransferase 1 (DNMT1) (human (endogenous in iSLK-BAC16)) (UniProt P26358)
Experiment: co-IP; endogenous proteins in extracts of iSLK-BAC16 cells treated with 0 or 72.5 uM genipin for 48 h; RIPA lysis buffer; IP with 2 ug anti-DNMT1, anti-DNMT3a or anti-KSHV ORF73 antibody at 4°C overnight, protein-A/G-Sepharose beads, three washes with lysis buffer; western blot

The chains behind the UniProt entries cited, without tags or fusion partners.
UniProt P26358: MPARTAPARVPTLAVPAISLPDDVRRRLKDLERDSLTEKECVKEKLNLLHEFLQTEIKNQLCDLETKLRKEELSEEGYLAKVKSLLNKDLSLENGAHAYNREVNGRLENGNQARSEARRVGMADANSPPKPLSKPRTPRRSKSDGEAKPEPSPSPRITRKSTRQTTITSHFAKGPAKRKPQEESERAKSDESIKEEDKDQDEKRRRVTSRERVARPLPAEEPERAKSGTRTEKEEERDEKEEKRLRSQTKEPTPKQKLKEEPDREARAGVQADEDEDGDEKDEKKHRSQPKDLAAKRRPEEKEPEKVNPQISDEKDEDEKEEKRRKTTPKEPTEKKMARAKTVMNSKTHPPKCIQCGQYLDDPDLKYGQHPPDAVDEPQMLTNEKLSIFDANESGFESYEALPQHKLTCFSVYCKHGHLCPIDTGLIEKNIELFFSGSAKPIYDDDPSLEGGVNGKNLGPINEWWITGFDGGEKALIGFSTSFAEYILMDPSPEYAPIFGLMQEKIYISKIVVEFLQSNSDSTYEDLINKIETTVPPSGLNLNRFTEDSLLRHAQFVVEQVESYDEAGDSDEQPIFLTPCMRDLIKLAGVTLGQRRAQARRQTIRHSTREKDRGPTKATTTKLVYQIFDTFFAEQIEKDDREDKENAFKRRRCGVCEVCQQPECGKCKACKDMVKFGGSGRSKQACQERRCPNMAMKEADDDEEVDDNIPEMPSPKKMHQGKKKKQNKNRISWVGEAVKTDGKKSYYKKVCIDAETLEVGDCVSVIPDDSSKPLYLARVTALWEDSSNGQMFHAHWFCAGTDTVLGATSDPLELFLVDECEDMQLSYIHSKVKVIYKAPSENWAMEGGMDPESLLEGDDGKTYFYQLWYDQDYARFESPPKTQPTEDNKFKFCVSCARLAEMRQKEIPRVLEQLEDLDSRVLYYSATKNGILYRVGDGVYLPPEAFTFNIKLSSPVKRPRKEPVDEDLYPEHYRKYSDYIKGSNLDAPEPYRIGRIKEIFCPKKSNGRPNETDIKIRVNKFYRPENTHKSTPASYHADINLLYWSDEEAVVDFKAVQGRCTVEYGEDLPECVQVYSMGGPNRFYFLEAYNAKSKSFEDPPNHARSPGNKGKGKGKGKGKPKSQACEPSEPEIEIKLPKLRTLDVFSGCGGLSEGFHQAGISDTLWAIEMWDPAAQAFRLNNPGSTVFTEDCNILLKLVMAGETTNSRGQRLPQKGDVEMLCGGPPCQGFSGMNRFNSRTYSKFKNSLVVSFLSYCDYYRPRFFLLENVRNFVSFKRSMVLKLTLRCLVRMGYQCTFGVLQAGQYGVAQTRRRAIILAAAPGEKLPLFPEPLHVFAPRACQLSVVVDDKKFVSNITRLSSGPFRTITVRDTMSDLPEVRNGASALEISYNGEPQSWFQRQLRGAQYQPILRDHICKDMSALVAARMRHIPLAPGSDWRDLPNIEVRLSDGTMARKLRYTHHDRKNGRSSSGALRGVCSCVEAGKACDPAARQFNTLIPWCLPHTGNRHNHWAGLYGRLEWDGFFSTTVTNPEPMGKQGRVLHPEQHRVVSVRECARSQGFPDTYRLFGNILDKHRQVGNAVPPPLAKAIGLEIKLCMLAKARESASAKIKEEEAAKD
UniProt Q9QR71: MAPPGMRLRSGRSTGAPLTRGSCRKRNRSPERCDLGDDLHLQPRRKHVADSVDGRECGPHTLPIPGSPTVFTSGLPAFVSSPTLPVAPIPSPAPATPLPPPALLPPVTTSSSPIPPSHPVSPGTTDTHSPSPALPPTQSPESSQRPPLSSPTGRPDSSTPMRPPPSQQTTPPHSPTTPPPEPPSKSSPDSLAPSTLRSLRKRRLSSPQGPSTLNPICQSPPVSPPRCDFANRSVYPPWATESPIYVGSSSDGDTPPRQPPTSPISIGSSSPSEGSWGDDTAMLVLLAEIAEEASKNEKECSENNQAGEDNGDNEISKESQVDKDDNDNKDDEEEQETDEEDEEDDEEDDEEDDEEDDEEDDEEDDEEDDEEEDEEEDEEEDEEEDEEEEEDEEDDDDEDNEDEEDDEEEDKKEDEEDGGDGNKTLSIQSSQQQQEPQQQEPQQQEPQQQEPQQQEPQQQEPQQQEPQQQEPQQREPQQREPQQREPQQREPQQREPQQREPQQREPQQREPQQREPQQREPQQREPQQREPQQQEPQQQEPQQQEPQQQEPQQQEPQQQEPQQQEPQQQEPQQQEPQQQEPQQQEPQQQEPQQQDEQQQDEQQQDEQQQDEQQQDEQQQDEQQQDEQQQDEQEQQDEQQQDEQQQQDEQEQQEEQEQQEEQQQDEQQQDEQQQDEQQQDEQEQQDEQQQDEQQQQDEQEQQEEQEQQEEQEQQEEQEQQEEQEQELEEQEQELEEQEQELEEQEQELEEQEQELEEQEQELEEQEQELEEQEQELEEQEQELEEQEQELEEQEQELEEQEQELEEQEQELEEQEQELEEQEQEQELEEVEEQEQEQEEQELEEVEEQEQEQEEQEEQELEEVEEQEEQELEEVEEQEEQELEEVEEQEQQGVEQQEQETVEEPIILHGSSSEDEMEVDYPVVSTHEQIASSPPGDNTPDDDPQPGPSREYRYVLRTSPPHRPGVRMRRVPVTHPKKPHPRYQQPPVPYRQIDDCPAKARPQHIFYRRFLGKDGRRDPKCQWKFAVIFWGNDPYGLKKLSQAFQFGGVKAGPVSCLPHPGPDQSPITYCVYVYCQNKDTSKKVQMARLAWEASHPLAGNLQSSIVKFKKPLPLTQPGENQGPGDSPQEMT

## KSHV latency-associated nuclear antigen (LANA) (from UniProt Q9QR71 1-1129)
  binding: binds
